The campaign covered roughly 330,000 compounds. About 7,700 (2.3%) were called active. The shares of active, inactive and inconclusive entries below differ from those in the screen. The call rests on the fitted dose curve; in most records, active means well fitted inhibition curve with a large enough effect; inconclusive means small, poorly fitted or top-dose-only effect, or effect the other way; inactive means flat fitted curve, though single readings scatter. Where the call is inconclusive, the potency comes from a doubtful curve fit.
Assay: qHTS screen for small molecules that inhibit ELG1-dependent DNA repair in human embryonic kidney (HEK293T) cells expressing luciferase-tagged ELG1; further: nearly all actives have a fitted effect of over 55% in size
Settings: HEK293T ELG1-luciferase reporter, luminescence, 16 h, DNA damage induced by 5-fluorouridine; series mostly up to 46.1 µM
Procedure, shortened: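 Cells (2,000 per well) received 5-fluorouridine plus test compound or DMSO and were incubated 16 hr at 37 °C, 5% CO2. Luciferase activity was read by luminescence 30 min after ONE-Glo addition; signal suppression marked inhibition of damage-induced ELG1 function.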
Potency means the concentration at half of the fitted maximal effect.

SMILES | Potency
O=C(/C=C/c1ccco1)N(Cc1ccccc1)C1CCS(=O)(=O)C1 (centres undefined) | inconclusive: 29.1 µM [inhibitor, single point]
CCOC12NC(=O)CC(=O)N1C(c1ccccc1)=CS2 (centres undefined) | inconclusive: 11.2 µM [activator, single point]
CC(=O)c1ccc(N(CC(=O)NCC2CCCO2)C(=O)CCC(=O)Nc2cc(C)on2)cc1 (centres undefined) | inconclusive: 29.1 µM [activator, single point]
CC1(C)CC(=O)C2=C(C1)Nc1[nH]n(-c3ccccc3)c(=O)c1C2c1ccc2c(c1)OCO2 (centres undefined) | inactive
CCc1ccccc1Nc1nc(-c2cccnc2)cs1 | inconclusive: 29.1 µM [inhibitor, partial curve, poor fit]
COc1c(C)cccc1C(=O)Nc1ccc(N2CCN(S(C)(=O)=O)CC2)cc1 | inconclusive: 8.2 µM [activator, partial curve]
CCN(CC)CCNC1=NCCn2c1cc1cc(OC)ccc12 | inactive
O=C(/C=C/c1ccc(Br)cc1)NCc1cccs1 | inconclusive: 18.4 µM [activator, single point]
COc1ccc(-n2c(C)cc(C(=O)CN3C(=O)NC4(CCc5ccccc54)C3=O)c2C)cc1 (centres undefined) | inconclusive: 29.1 µM [inhibitor, partial curve, poor fit]
COc1cccc(C2/C(=C(/O)c3cnn(-c4ccccc4)c3C)C(=O)C(=O)N2CCN(C)C)c1OC (centres undefined) | inconclusive: 18.4 µM [inhibitor, partial curve]
N/C(=N\OC(=O)c1ccccc1)c1ccccn1 | inconclusive: 2.06 µM [activator, partial curve]
CCN(CC)c1ccc(S(=O)(=O)N2CCOCC2)cc1NC(=O)CSC(=S)N1CCCC1 | inconclusive: 29.1 µM [inhibitor, single point]
Cc1ccc(COC(=O)Cc2coc3cc(O)ccc23)cc1 | inactive
CC1(C)C(=O)Nc2ccccc2N1C(=O)COc1ccc(S(=O)(=O)N2CCOCC2)cc1Cl | inconclusive: 23.1 µM [inhibitor, partial curve, poor fit]
CNc1nnc(-c2cc3cc(Cl)ccc3oc2=O)s1 | inconclusive: 8.2 µM [activator, partial curve]
Cc1cc(C)c2ccc(=O)n(CC(=O)N/N=C/c3ccccc3Cl)c2n1 | inactive
O=C(Nc1ccc(Cl)c(Cl)c1)N1CC=CCC1 | inconclusive: 3.98 µM [activator, partial curve, poor fit]
O=C(N/N=C/c1ccc(Br)s1)c1ccc([N+](=O)[O-])cc1 | active: 5.8 µM
COc1ccc2c(CC(=O)NCCN3C(=O)S/C(=C\c4cccnc4)C3=O)coc2c1 | inconclusive: 29.1 µM [inhibitor, single point]
CCN(CC)S(=O)(=O)c1cc(NC(=O)C(C)N(C)CC(=O)Nc2c(C)cccc2C)ccc1C (centres undefined) | active: 20.6 µM
CC(C)Cc1cc(C(=O)Nc2cccc(O)c2)no1 | inconclusive: 3.26 µM [activator, full curve]
O=C(CS(=O)(=O)c1ccccc1)N1CCN(c2ccccc2)CC1 | inconclusive: 23.1 µM [activator, single point]
CN(C)c1ccc(N=c2sc3ccccc3n2C)cc1 | inconclusive: 7.31 µM [activator, partial curve]

5 compounds picked at random from the list so far, as already listed:
SMILES | Potency
COc1ccc(-n2c(C)cc(C(=O)CN3C(=O)NC4(CCc5ccccc54)C3=O)c2C)cc1 (centres undefined) | inconclusive: 29.1 µM [inhibitor, partial curve, poor fit]
CC1(C)CC(=O)C2=C(C1)Nc1[nH]n(-c3ccccc3)c(=O)c1C2c1ccc2c(c1)OCO2 (centres undefined) | inactive
Cc1cc(C)c2ccc(=O)n(CC(=O)N/N=C/c3ccccc3Cl)c2n1 | inactive
CC(C)Cc1cc(C(=O)Nc2cccc(O)c2)no1 | inconclusive: 3.26 µM [activator, full curve]
CNc1nnc(-c2cc3cc(Cl)ccc3oc2=O)s1 | inconclusive: 8.2 µM [activator, partial curve]

The listing continues.

SMILES | Potency
Cc1ccc2c(c1)cc(CN(Cc1cccnc1)C(=O)NCc1ccccc1)c1nnnn12 | inconclusive: 29.1 µM [inhibitor, single point]
O=C(CSc1ccc2c(c1)OCCO2)Nc1ccc(Br)cn1 | inconclusive: 20.6 µM [activator, partial curve, poor fit]
Nc1nc(CSc2ncccn2)nc(Nc2ccccc2)n1 | inconclusive: 9.2 µM [activator, partial curve]
Cc1ccc(S(=O)(=O)N/N=C/c2c[nH]c3ccccc23)cc1 | inconclusive: 7.3 µM [inhibitor, partial curve]
COc1cc([N+](=O)[O-])ccc1NC(=O)COC(=O)C1=NN(c2ccccc2)C(=O)CC1 | inactive
Cc1ccc(C(=O)c2cc3c(cc2[N+](=O)[O-])OCCO3)cc1 | inconclusive: 20.6 µM [activator, single point]
C/C(=N\NC(=O)c1csc(C)c1C)c1ccc(C)s1 | inconclusive: 13 µM [activator, partial curve]
N/C(=N\O)c1ccc(N2CCN(c3ncccc3C(F)(F)F)CC2)nc1 | inconclusive: 6.51 µM [activator, single point]
COc1ccc(CCNc2nc(-c3ccc(NC(C)=O)cc3)cs2)cc1OC | inconclusive: 23.1 µM [inhibitor, partial curve]
CCC(=O)Nc1cc(C(=O)O)ccc1S(=O)(=O)c1ccc(C)cc1 | inactive
Cc1ccc(NC(=O)Cc2n[nH]c(=O)c3ccccc23)cc1S(=O)(=O)N1CCCCCC1 | inconclusive: 23.1 µM [inhibitor, partial curve]
O=C(Cn1cc(C(=O)c2cccs2)c2ccccc21)NC1CCCCC1 | inconclusive: 32.6 µM [inhibitor, partial curve, poor fit]
COC(=O)c1cc2ccsc2n1Cc1cccc(F)c1 | inconclusive: 18.4 µM [activator, single point]
CC(=O)NC1C(=O)N=C(SC(C)C(=O)Nc2cccc(Cl)c2)NC1=O (centres undefined) | inactive
CCOC(=O)c1sc(NC(=O)c2ccc(S(=O)(=O)N(C)C)cc2)cc1C | active: 16.4 µM
CCCCc1ccc(NC(=O)C2CCCO2)cc1 (centres undefined) | inconclusive: 8.2 µM [activator, partial curve]
CC(=O)C1=C(C)NC(SCC(=O)c2ccc(F)cc2)=C(C#N)C1c1ccco1 (centres undefined) | inconclusive: 29.1 µM [inhibitor, single point]
O=C(c1ccc(-c2ccccc2)cc1)N1CCCC1 | inconclusive: 29.1 µM [activator, single point]
CC1CN(C(=O)COC(=O)c2ccccc2O)CC(C)O1 (centres undefined) | inactive
O=C(/C=C\c1ccc2c(c1)OCO2)NC1(C(=O)Nc2ccc3c(c2)OCO3)CCCCC1 | inconclusive: 20.6 µM [inhibitor, single point]
Cc1ccc(NC(=O)c2ccc([N+](=O)[O-])cc2)cc1S(=O)(=O)N(C)C | active: 18.3 µM
Clc1ccc(OCc2cnc(Cl)s2)cc1 | inactive
CCNC(=S)N/N=C/c1ccc(OCc2ccc(C(=O)OC)cc2)cc1 | inactive

SMILES | Potency
CC(C)Oc1ccc(C(=O)N2CCCc3ccccc32)cc1 | inactive
Cc1c(C(=O)OCC(=O)N(C)Cc2ccc(Cl)cc2)oc2ccccc12 | inactive
CCOC(=O)/C(=C/c1c(C)n(C)c2ccc([N+](=O)[O-])cc12)C(C)=O | active: 13 µM
O=C(NCCc1ccccc1)C(=O)c1c(-c2ccccc2)cc2ccccn12 | inconclusive: 29.1 µM [inhibitor, single point]
CN(C)CCn1c2c(c(SCC(=O)Nc3cccc4ccccc34)nc1=O)CCCC2 | inconclusive: 9.2 µM [inhibitor, partial curve, poor fit]
OCCCc1nc2n(n1)C(c1ccccc1)C=C(c1ccc(F)cc1)N2 (centres undefined) | inconclusive: 32.6 µM [inhibitor, partial curve, poor fit]
Cc1nn(-c2nnc(NC3CCCCC3)nn2)c(C)c1Br | inconclusive: 9.2 µM [activator, partial curve]
COc1ccc(OC)c(NC(=O)c2sc3ncnc(N4CCN(c5ccccn5)CC4)c3c2C)c1 | active: 2.59 µM
COc1ccc(CNS(=O)(=O)c2ccc3c(c2)N(C)CCO3)cc1 | inconclusive: 29.1 µM [inhibitor, single point]
CS(=O)(=O)Nc1cccc(C2=NN(S(C)(=O)=O)C(c3ccc4c(c3)OCO4)C2)c1 (centres undefined) | inconclusive: 10.3 µM [activator, partial curve]
Cc1cc(-c2ccc(Cl)s2)n[nH]1 | inconclusive: 18.4 µM [activator, single point]
COC(=O)c1c(NC(=O)c2ccccc2)sc(C(N)=O)c1C | inactive
Cc1ccc(C(=O)N2CCN(c3ccc(NC(=O)Cc4ccccc4)cc3)CC2)cc1 | inconclusive: 29.1 µM [inhibitor, single point]
COC(=O)c1ccc(OC(=O)c2cccnc2SC)cc1 | inconclusive: 29.1 µM [activator, single point]
O=C1NC(c2ccc(Cl)cc2)Oc2ccccc21 (centres undefined) | inactive
Cc1cc(C)nc(NC(=O)c2c(-c3ccccc3Cl)noc2C)c1 | inconclusive: 18.4 µM [inhibitor, partial curve, poor fit]
NC(=O)COc1ccc(NC(=O)CC23CC4CC(CC(C4)C2)C3)cc1 | inactive
Cc1cc(NC(=O)COC(=O)C2CCN(S(=O)(=O)c3ccccc3)CC2)c([N+](=O)[O-])cc1C | inactive
CCOC(=O)c1nnn(-c2nonc2N)c1-c1ccccc1 | inconclusive: 1.16 µM [activator, single point]
COc1ccc(CCNC(=O)C2CC3Cn4c(nc5cc6ccccc6cc54)C3N2C)cc1 (centres undefined) | inactive
Cc1ccc(NC(=O)CSc2ncn[nH]2)c([N+](=O)[O-])c1 | inconclusive: 16.4 µM [activator, partial curve, poor fit]
Cn1c(-c2ccc(C(C)(C)C)cc2)n[nH]c1=S | inconclusive: 20.6 µM [activator, partial curve]
O=C1CNC(=O)/C1=C/c1ccccc1 | inconclusive: 29.1 µM [activator, partial curve, poor fit]

— PubChem BioAssay AID504467 (National Center for Advancing Translational Sciences (NCATS), 2011)
